Results reported in patent US8378085B2, “Bacterial ATP synthase binding domain” (priority 2004, dated 2013).

Tested on: M. smegmatis
Assay type: cell-based, Mycobacterium smegmatis

COc1nc2ccc(Br)cc2cc1[C@@H](c1ccccc1)[C@@](O)(CCN(C)C)c1cccc2ccccc12 [J] was tested, and the “proportion of mutants with reduced sensitivity” value (MIC×4) was 2×10^−8 and the “proportion of mutants with reduced sensitivity” value (MIC×8) was 1×10^−8.

Where two headings read alike, the source gives them in different places.
